Article PMC5746128
Results are given in words; binding and its absence hold for the method and conditions named. Binding seen in cells or lysates may run through a third protein. Some binding calls cover weakened binding; strength is not graded here.

Columns and labels:
[1] = biological target: T1, ANXA4 in ES-2-A4-O cells (ES-2 cells transfected with ANXA4 gene), P09525; assay: co-IP; lysates of RMG-1 and ES-2 cells; ANXA4 precipitated with rabbit anti-human ANXA4 and NF-kB p50 detected with mouse anti-human NF-kB p50, and the reverse (NF-kB p50 precipitated, ANXA4 detected); rabbit IgG as negative control; also ES-2-FUT1 and ES-2-A4-O stable transfectants compared with ES-2 (IP of ANXA4); conditions: remark: other sources report otherwise
T1 chain: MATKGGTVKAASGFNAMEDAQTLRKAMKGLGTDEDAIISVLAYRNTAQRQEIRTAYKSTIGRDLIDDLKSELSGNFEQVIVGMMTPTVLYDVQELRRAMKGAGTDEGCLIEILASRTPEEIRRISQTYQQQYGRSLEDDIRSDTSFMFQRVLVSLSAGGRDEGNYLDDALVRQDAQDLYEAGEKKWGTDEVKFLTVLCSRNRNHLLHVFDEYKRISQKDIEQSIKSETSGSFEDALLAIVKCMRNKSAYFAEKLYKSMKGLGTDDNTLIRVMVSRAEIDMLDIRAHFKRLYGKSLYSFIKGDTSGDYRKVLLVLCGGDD

[2] = biological target: T2, Annexin A4 (human (endogenous in RMG-1 and ES-2)), P09525; assay: as above; conditions: remark: other sources report otherwise
T2 chain: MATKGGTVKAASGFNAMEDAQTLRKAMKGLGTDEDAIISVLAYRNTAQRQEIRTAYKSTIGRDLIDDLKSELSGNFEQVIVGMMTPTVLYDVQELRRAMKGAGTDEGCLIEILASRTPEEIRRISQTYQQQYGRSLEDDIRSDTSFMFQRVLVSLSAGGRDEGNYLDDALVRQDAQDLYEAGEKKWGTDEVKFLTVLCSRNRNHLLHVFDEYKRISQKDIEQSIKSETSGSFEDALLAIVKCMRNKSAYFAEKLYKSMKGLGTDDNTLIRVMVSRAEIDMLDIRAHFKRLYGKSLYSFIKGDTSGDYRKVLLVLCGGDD

binding [1]: binds | binding [2]: binds
B1: NF-kB p50, P19838 1-433 (protein)
chain: MAEDDPYLGRPEQMFHLDPSLTHTIFNPEVFQPQMALPTDGPYLQILEQPKQRGFRFRYVCEGPSHGGLPGASSEKNKKSYPQVKICNYVGPAKVIVQLVTNGKNIHLHAHSLVGKHCEDGICTVTAGPKDMVVGFANLGILHVTKKKVFETLEARMTEACIRGYNPGLLVHPDLAYLQAEGGGDRQLGDREKELIRQAALQQTKEMDLSVVRLMFTAFLPDSTGSFTRRLEPVVSDAIYDSKAPNASNLKIVRMDRTAGCVTGGEEIYLLCDKVQKDDIQIRFYEEEENGGVWEGFGDFSPTDVHRQFAIVFKTPKYKDINITKPASVFVQLRRKSDLETSEPKPFLYYPEIKDKEEVQRKRQKLMPNFSDSFGGGSGAGAGGGGMFGSGGGGGGTGSTGPGYSFPHYGFPTYGGITFHPGTTKSNAGMKHG
modifications: here or on the partner: Lewis y antigen (fucosylated oligosaccharide) on ANXA4, site not stated
